According to US9744314B2, “Aerosols for sinunasal drug delivery” (PARI Pharma GmbH, priority 2007, dated 2017):

Assay: Sinunasal deposition of nebulised azithromycin formulation in nasal cast model (Example 3)
Parameters: species or system human

## CC[C@H]1OC(=O)[C@H](C)[C@@H](O[C@H]2C[C@@](C)(OC)[C@@H](O)[C@H](C)O2)[C@H](C)[C@@H](O[C@@H]2O[C@H](C)C[C@H](N(C)C)[C@H]2O)[C@](C)(O)C[C@@H](C)CN(C)[C@H](C)[C@@H](O)[C@]1(C)O [azithromycin]
Frontal left, 7.5 ml, ostium 0.5 mm
  Deposited Azithromycin in sinus: 312 µg
Frontal right, 7.5 ml, ostium 0.5 mm, 2×0.5 ml of 50 mg/ml, flow rate 1.01/min, 36 Hz
  Deposited Azithromycin in sinus: 214 µg
Maxillary left, 23 ml, ostium 2 mm
  Deposited Azithromycin in sinus: 5568 µg
Maxillary right, 23 ml, ostium 2 mm
  Deposited Azithromycin in sinus: 5039 µg
Sphenoid left, 12 ml, ostium 1 mm
  Deposited Azithromycin in sinus: 1908 µg
Sphenoid right, 12 ml, ostium 1 mm
  Deposited Azithromycin in sinus: 1661 µg
